In this assay the test system is L1210 leukemia ip in BDF1 mice, survival T/C. As to the kind of experiment: NCI In Vivo Anticancer Drug Screen. Data for tumor model L1210 Leukemia (intraperitoneal) in B6D2F1 (BDF1) mice. The settings on record: T/C endpoint: mean survival time, higher T/C = longer survival.
[1] abbreviates: dose: 400.0 mg/kg/injection, schedule: Q04DX002 (ip), vehicle: Klucel (hydroxypropylcellulose) (HPC).
[2] abbreviates: dose: 200.0 mg/kg/injection, schedule: Q01DX009 (ip), vehicle: saline with Tween-80.
Where [3] appears, read: dose: 400.0 mg/kg/injection, schedule: Q04DX003 (ip), vehicle: Klucel (hydroxypropylcellulose) (HPC).

Each structure is given as a SMILES string. The list shows only some results of the screen, not a fair sample: it is rich in T/C values a quarter to a half above the control, in often repeated tests (any T/C) and in doses without a T/C. Other doses and runs of a compound stand elsewhere. T/C gives the treated animals as a percentage of the vehicle group. Some entries give survivors of the animals treated and no T/C: the source files T/C as zero there, which appears to mark a toxic dose or a test without result, not a measured value. Some doses without a T/C left all or most animals alive at the check, yet need not have been tolerated: survival well below the control is almost never listed, so the zero probably covers shortened survival too. Survivors were counted at the toxicity check, usually on the fifth day, unless a day is given; later deaths do not show. Schedule codes are those of the source, read here as Q, the interval in days (D) or hours (H), X, the number of doses. Some schedules carry Z or #; the key to these is not given. For survival time, this PubChem deposit counts one and a half times the control or more as active, and values a quarter to a half above the control carry no call in these data; other NCI protocols may use other cut-offs.

`C#CC(=O)[O][Sn]([c]1ccccc1)([c]1ccccc1)[c]1ccccc1`: the survivor count was 0 of 6 (dose: 25.0 mg/kg/injection, schedule: Q01DX009 (ip), vehicle: Klucel (hydroxypropylcellulose) (HPC)); 0 of 6 (dose: 50.0 mg/kg/injection, schedule: Q01DX009 (ip), vehicle: Klucel (hydroxypropylcellulose) (HPC)); 0 of 6 (dose: 100.0 mg/kg/injection, schedule: Q01DX009 (ip), vehicle: Klucel (hydroxypropylcellulose) (HPC)); 0 of 3 (dose: 100.0 mg/kg/injection, schedule: Q04DX002 (ip), vehicle: Klucel (hydroxypropylcellulose) (HPC)); 0 of 3 (dose: 200.0 mg/kg/injection, schedule: Q04DX002 (ip), vehicle: Klucel (hydroxypropylcellulose) (HPC)); 0 of 3 under setting [1].
With `CC(/C=N\N)=N\N`, the survivor count by setting is: (dose: 60.0 mg/kg/injection, schedule: Q01DX Z (oral), vehicle: saline) 6 of 6; (dose: 120.0 mg/kg/injection, schedule: Q01DX Z (ip), vehicle: saline) 4 of 6; (dose: 120.0 mg/kg/injection, schedule: Q01DX Z (oral), vehicle: saline) 1 of 6.
As to `Cc1c(Cl)cccc1NC(=O)Nc1ccccc1`, the survivor count was 6 of 6 (dose: 100.0 mg/kg/injection, schedule: Q01DX009 (ip), vehicle: DMSO); 6 of 6 (dose: 200.0 mg/kg/injection, schedule: Q01DX009 (ip), vehicle: DMSO); 6 of 6 (dose: 400.0 mg/kg/injection, schedule: Q01DX009 (ip), vehicle: DMSO).
Turning to `CCOc1ccc(NC(=O)NCCBr)cc1`, the survivor count under setting [2] was 3 of 3.
On to `CC(C)(C)Nc1ccc(F)cc1`, for which the survivor count under setting [1] is 0 of 3.
In the case of `COc1ccc([N+](=O)[O-])cc1CNCCCl`, the survivor count (dose: 200.0 mg/kg/injection, schedule: Q01DX001 (ip), vehicle: Klucel (hydroxypropylcellulose) (HPC)) is on record as 0 of 6.
As for `Cc1ccc(Sc2cccc3c2C(=O)c2c(Sc4ccc(C)cc4)cccc2C3(Br)c2ccccc2)cc1`, under setting [2], the survivor count is 5 of 6.
For `C[N+]1(C)C2CCC(OCc3ccccc3)C1COC2` (centres undefined), the survivor count (dose: 300.0 mg/kg/injection, schedule: Q01DX001 (ip), vehicle: saline) is given as 1 of 6.
Regarding `CC(C)CCCC(C)C1CCC2C3CC=C4CC(=O)CCC4(C)C3CCC12C` (centres undefined), where the note is “dose: 200.0 mg/kg/injection, schedule: Q04DX002 (ip), vehicle: saline with Tween-80”, the survivor count is recorded as 3 of 3.
As to `CCCCS/C=C1/CC2(C)C(CCC3C4CCC(O)C4(C)CCC32)CC1=O` (centres undefined), the survivor count under setting [3] was 6 of 6.
`O=C(CN(Cc1ccccc1)Cc1ccccc1)c1ccccc1`: the survivor count reads like this: (dose: 200.0 mg/kg/injection, schedule: Q04DX003 (ip), vehicle: DMSO) 1 of 6; (dose: 400.0 mg/kg/injection, schedule: Q04DX003 (ip), vehicle: DMSO) 1 of 6.
On to `CC(=O)NN=C(C)C`, for which the survivor count (dose: 100.0 mg/kg/injection, schedule: Q01DX009 (ip), vehicle: saline) is on record as 2 of 6; the survivor count (dose: 200.0 mg/kg/injection, schedule: Q01DX009 (ip), vehicle: saline) was 3 of 6; the survivor count (dose: 400.0 mg/kg/injection, schedule: Q04DX003 (ip), vehicle: saline) is 3 of 6.
As for `CN(N=O)C(=O)NCCCCNC(=O)N(C)N=O`, the T/C is, setting by setting: (dose: 100.0 mg/kg/injection, schedule: Q01DX Z (ip), vehicle: carboxymethylcellulose (CMC)) 135 % of control; (dose: 150.0 mg/kg/injection, schedule: Q01DX Z (ip), vehicle: carboxymethylcellulose (CMC)) 145 % of control; (dose: 300.0 mg/kg/injection, schedule: Q01DX Z (ip), vehicle: carboxymethylcellulose (CMC)) 148 % of control.
Take `CC(=O)OC(C)(C)/C=C/C(=O)[C@](C)(O)[C@H]1[C@H](O)C[C@@]2(C)[C@@H]3CC=C4[C@@H](C[C@H](O)C(=O)C4(C)C)[C@]3(C)C(=O)C[C@]12C`: the survivor count runs as follows: (dose: 0.57 mg/kg/injection, schedule: Q01DX Z (ip), vehicle: saline) 1 of 6; (dose: 0.72 mg/kg/injection, schedule: Q01DX009 (ip), vehicle: saline) 0 of 6; (dose: 0.8 mg/kg/injection, schedule: Q01DX Z (ip), vehicle: carboxymethylcellulose (CMC)) 1 of 4; (dose: 0.8 mg/kg/injection, schedule: Q01DX Z (ip), vehicle: saline) 0 of 6; (dose: 1.0 mg/kg/injection, schedule: Q01DX001 (ip), vehicle: saline) 0 of 6; (dose: 1.13 mg/kg/injection, schedule: Q01DX009 (ip), vehicle: saline) 0 of 6. Further, the survivor count (dose: 1.2 mg/kg/injection, schedule: Q01DX Z (ip), vehicle: saline) was 0 of 6; the survivor count (dose: 1.6 mg/kg/injection, schedule: Q01DX Z (ip), vehicle: carboxymethylcellulose (CMC)) was 0 of 4; the survivor count (dose: 1.65 mg/kg/injection, schedule: Q01DX009 (ip), vehicle: saline) is on record as 0 of 6; the survivor count (dose: 1.8 mg/kg/injection, schedule: Q01DX Z (ip), vehicle: saline) is 0 of 6; the survivor count (dose: 3.2 mg/kg/injection, schedule: Q01DX Z (ip), vehicle: carboxymethylcellulose (CMC)) was 0 of 4.
Consider `CC(=O)OC(OC(C)=O)c1ccc([N+](=O)[O-])c([N+](=O)[O-])c1`, for which the survivor count (dose: 100.0 mg/kg/injection, schedule: Q01DX001 (ip), vehicle: carboxymethylcellulose (CMC)) is 0 of 6; the survivor count (dose: 200.0 mg/kg/injection, schedule: Q01DX001 (ip), vehicle: carboxymethylcellulose (CMC)) was 0 of 6; the survivor count (dose: 400.0 mg/kg/injection, schedule: Q01DX001 (ip), vehicle: carboxymethylcellulose (CMC)) is on record as 0 of 6.
`ClCCOCOCCCl`: the survivor count (dose: 100.0 mg/kg/injection, schedule: Q04DX003 (ip), vehicle: Klucel (hydroxypropylcellulose) (HPC)) was 6 of 6; the survivor count (dose: 200.0 mg/kg/injection, schedule: Q04DX003 (ip), vehicle: Klucel (hydroxypropylcellulose) (HPC)) is given as 6 of 6; the survivor count under setting [3] is 0 of 6.

Values taken from PubChem BioAssay AID248 (DTP/NCI, 2004).
